Binding data for 8 molecules are collected here from publication doi:10.1101/2021.12.08.471875.

Sequences of proteins named here, by UniProt entry; tags and fusion partners are left off.
UniProt P28632: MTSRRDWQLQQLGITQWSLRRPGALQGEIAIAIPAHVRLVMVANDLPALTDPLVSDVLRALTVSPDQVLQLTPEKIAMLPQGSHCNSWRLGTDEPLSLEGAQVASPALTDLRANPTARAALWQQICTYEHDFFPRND

No constants are given. Whether binding was seen depends on the method and setting. Binding seen in cells or lysates may run through a third protein. A yes stands for co-enrichment or nearness to the bait. Other partners may have been found.

Common to all, as to assay: affinity purification with mass spectrometry
For one experiment, the target named is HolD (E. coli) (UniProt P28632).
Experiment [1] addresses T1, NrdB, a ribonuclotide reductase (RNR) subunit (E. coli) (UniProt P69924).
T1 sequence: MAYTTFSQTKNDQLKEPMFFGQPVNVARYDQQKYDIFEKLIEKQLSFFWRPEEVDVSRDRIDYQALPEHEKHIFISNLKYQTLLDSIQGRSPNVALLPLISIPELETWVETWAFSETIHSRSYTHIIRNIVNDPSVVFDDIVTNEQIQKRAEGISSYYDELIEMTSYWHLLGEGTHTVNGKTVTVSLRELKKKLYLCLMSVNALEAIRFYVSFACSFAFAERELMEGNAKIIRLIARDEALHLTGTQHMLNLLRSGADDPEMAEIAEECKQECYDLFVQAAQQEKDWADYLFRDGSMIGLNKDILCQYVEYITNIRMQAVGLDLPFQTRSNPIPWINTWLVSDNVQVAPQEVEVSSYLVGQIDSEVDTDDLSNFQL

In a further experiment the target is T2, SeqA (E. coli) (UniProt P0AFY8).
T2 sequence: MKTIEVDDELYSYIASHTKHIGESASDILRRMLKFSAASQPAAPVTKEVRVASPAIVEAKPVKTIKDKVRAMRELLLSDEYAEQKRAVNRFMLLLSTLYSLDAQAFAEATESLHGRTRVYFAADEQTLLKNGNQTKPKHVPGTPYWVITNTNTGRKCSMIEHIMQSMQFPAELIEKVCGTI

B1: GuaA (enzyme, UniProt P04079 1-525)
chain: MTENIHKHRILILDFGSQYTQLVARRVRELGVYCELWAWDVTEAQIRDFNPSGIILSGGPESTTEENSPRAPQYVFEAGVPVFGVCYGMQTMAMQLGGHVEASNEREFGYAQVEVVNDSALVRGIEDALTADGKPLLDVWMSHGDKVTAIPSDFITVASTESCPFAIMANEEKRFYGVQFHPEVTHTRQGMRMLERFVRDICQCEALWTPAKIIDDAVARIREQVGDDKVILGLSGGVDSSVTAMLLHRAIGKNLTCVFVDNGLLRLNEAEQVLDMFGDHFGLNIVHVPAEDRFLSALAGENDPEAKRKIIGRVFVEVFDEEALKLEDVKWLAQGTIYPDVIESAASATGKAHVIKSHHNVGGLPKEMKMGLVEPLKELFKDEVRKIGLELGLPYDMLYRHPFPGPGLGVRVLGEVKKEYCDLLRRADAIFIEELRKADLYDKVSQAFTVFLPVRSVGVMGDGRKYDWVVSLRAVETIDFMTAHWAHLPYDFLGRVSNRIINEVNGISRVVYDISGKPPATIEWE
For the molecule B1, in the experiment with HolD (E. coli), the binding entry is given as “binds”.

B2: HldE (enzyme, UniProt P76658 1-477)
chain: MKVTLPEFERAGVMVVGDVMLDRYWYGPTSRISPEAPVPVVKVNTIEERPGGAANVAMNIASLGANARLVGLTGIDDAARALSKSLADVNVKCDFVSVPTHPTITKLRVLSRNQQLIRLDFEEGFEGVDPQPLHERINQALSSIGALVLSDYAKGALASVQQMIQLARKAGVPVLIDPKGTDFERYRGATLLTPNLSEFEAVVGKCKTEEEIVERGMKLIADYELSALLVTRSEQGMSLLQPGKAPLHMPTQAQEVYDVTGAGDTVIGVLAATLAAGNSLEEACFFANAAAGVVVGKLGTSTVSPIELENAVRGRADTGFGVMTEEELKLAVAAARKRGEKVVMTNGVFDILHAGHVSYLANARKLGDRLIVAVNSDASTKRLKGDSRPVNPLEQRMIVLGALEAVDWVVSFEEDTPQRLIAGILPDLLVKGGDYKPEEIAGSKEVWANGGEVLVLNFEDGCSTTNIIKKIQQDKKG
Turning to B2, in experiment [1], the binding entry was “binds”.

B3: NrdA (protein, UniProt P00452 1-761)
chain: MNQNLLVTKRDGSTERINLDKIHRVLDWAAEGLHNVSISQVELRSHIQFYDGIKTSDIHETIIKAAADLISRDAPDYQYLAARLAIFHLRKKAYGQFEPPALYDHVVKMVEMGKYDNHLLEDYTEEEFKQMDTFIDHDRDMTFSYAAVKQLEGKYLVQNRVTGEIYESAQFLYILVAACLFSNYPRETRLQYVKRFYDAVSTFKISLPTPIMSGVRTPTRQFSSCVLIECGDSLDSINATSSAIVKYVSQRAGIGINAGRIRALGSPIRGGEAFHTGCIPFYKHFQTAVKSCSQGGVRGGAATLFYPMWHLEVESLLVLKNNRGVEGNRVRHMDYGVQINKLMYTRLLKGEDITLFSPSDVPGLYDAFFADQEEFERLYTKYEKDDSIRKQRVKAVELFSLMMQERASTGRIYIQNVDHCNTHSPFDPAIAPVRQSNLCLEIALPTKPLNDVNDENGEIALCTLSAFNLGAINNLDELEELAILAVRALDALLDYQDYPIPAAKRGAMGRRTLGIGVINFAYYLAKHGKRYSDGSANNLTHKTFEAIQYYLLKASNELAKEQGACPWFNETTYAKGILPIDTYKKDLDTIANEPLHYDWEALRESIKTHGLRNSTLSALMPSETSSQISNATNGIEPPRGYVSIKASKDGILRQVVPDYEHLHDAYELLWEMPGNDGYLQLVGIMQKFIDQSISANTNYDPSRFPSGKVPMQQLLKDLLTAYKFGVKTLYYQNTRDGAEDAQDDLVPSIQDDGCESGACKI
In the case of B3, in experiment [1], the binding result was “binds”.

B4: PlsB (enzyme, UniProt P0A7A7 1-807)
chain: MSGWPRIYYKLLNLPLSILVKSKSIPADPAPELGLDTSRPIMYVLPYNSKADLLTLRAQCLAHDLPDPLEPLEIDGTLLPRYVFIHGGPRVFTYYTPKEESIKLFHDYLDLHRSNPNLDVQMVPVSVMFGRAPGREKGEVNPPLRMLNGVQKFFAVLWLGRDSFVRFSPSVSLRRMADEHGTDKTIAQKLARVARMHFARQRLAAVGPRLPARQDLFNKLLASRAIAKAVEDEARSKKISHEKAQQNAIALMEEIAANFSYEMIRLTDRILGFTWNRLYQGINVHNAERVRQLAHDGHELVYVPCHRSHMDYLLLSYVLYHQGLVPPHIAAGINLNFWPAGPIFRRLGAFFIRRTFKGNKLYSTVFREYLGELFSRGYSVEYFVEGGRSRTGRLLDPKTGTLSMTIQAMLRGGTRPITLIPIYIGYEHVMEVGTYAKELRGATKEKESLPQMLRGLSKLRNLGQGYVNFGEPMPLMTYLNQHVPDWRESIDPIEAVRPAWLTPTVNNIAADLMVRINNAGAANAMNLCCTALLASRQRSLTREQLTEQLNCYLDLMRNVPYSTDSTVPSASASELIDHALQMNKFEVEKDTIGDIIILPREQAVLMTYYRNNIAHMLVLPSLMAAIVTQHRHISRDVLMEHVNVLYPMLKAELFLRWDRDELPDVIDALANEMQRQGLITLQDDELHINPAHSRTLQLLAAGARETLQRYAITFWLLSANPSINRGTLEKESRTVAQRLSVLHGINAPEFFDKAVFSSLVLTLRDEGYISDSGDAEPAETMKVYQLLAELITSDVRLTIESATQGEG
In the case of B4, the binding result in the experiment with SeqA (E. coli) was “binds”.

B5: RfaD (enzyme, UniProt P67910 1-310)
chain: MIIVTGGAGFIGSNIVKALNDKGITDILVVDNLKDGTKFVNLVDLNIADYMDKEDFLIQIMAGEEFGDVEAIFHEGACSSTTEWDGKYMMDNNYQYSKELLHYCLEREIPFLYASSAATYGGRTSDFIESREYEKPLNVYGYSKFLFDEYVRQILPEANSQIVGFRYFNVYGPREGHKGSMASVAFHLNTQLNNGESPKLFEGSENFKRDFVYVGDVADVNLWFLENGVSGIFNLGTGRAESFQAVADATLAYHKKGQIEYIPFPDKLKGRYQAFTQADLTNLRAAGYDKPFKTVAEGVTEYMAWLNRDA
As to B5, in the experiment with SeqA (E. coli), the binding result was “binds”.

B6: RlmE (enzyme, UniProt P0C0R7 1-209)
chain: MTGKKRSASSSRWLQEHFSDKYVQQAQKKGLRSRAWFKLDEIQQSDKLFKPGMTVVDLGAAPGGWSQYVVTQIGGKGRIIACDLLPMDPIVGVDFLQGDFRDELVMKALLERVGDSKVQVVMSDMAPNMSGTPAVDIPRAMYLVELALEMCRDVLAPGGSFVVKVFQGEGFDEYLREIRSLFTKVKVRKPDSSRARSREVYIVATGRKP
Regarding B6, the binding entry in experiment [1] is given as “binds”.

B7: FbaB (enzyme, UniProt P0A991 1-350)
chain: MTDIAQLLGKDADNLLQHRCMTIPSDQLYLPGHDYVDRVMIDNNRPPAVLRNMQTLYNTGRLAGTGYLSILPVDQGVEHSAGASFAANPLYFDPKNIVELAIEAGCNCVASTYGVLASVSRRYAHRIPFLVKLNHNETLSYPNTYDQTLYASVEQAFNMGAVAVGATIYFGSEESRRQIEEISAAFERAHELGMVTVLWAYLRNSAFKKDGVDYHVSADLTGQANHLAATIGADIVKQKMAENNGGYKAINYGYTDDRVYSKLTSENPIDLVRYQLANCYMGRAGLINSGGAAGGETDLSDAVRTAVINKRAGGMGLILGRKAFKKSMADGVKLINAVQDVYLDSKITIA
B7: the binding entry in experiment [1] is reported as “binds”.

B8: PriB (protein, UniProt P07013 1-104)
chain: MTNRLVLSGTVCRAPLRKVSPSGIPHCQFVLEHRSVQEEAGFHRQAWCQMPVIVSGHENQAITHSITVGSRITVQGFISCHKAKNGLSKMVLHAEQIELIDSGD
For B8, the binding entry in experiment [1] is “binds”.
